These are yes or no findings as the source states them, for the method shown. For part of these data: In cells and extracts the contact can be indirect. For part of these data: A result given as binding can be weak or reduced; the word gives no strength. For part of these data: Where a sequence is shown, tags or fusion partners need not be part of it. Values belong to the molecule of their own block, whether it stands above or below them.
Legend:
[1] = molecular target: T1, Jacob (endogenous, rat brain) (rat (endogenous in rat brain)) (UniProt Q9EPI6); test: co-IP; soluble rat brain protein fraction (rat cortex), Jacob antibody JB-150 coupled to Protein-A sepharose; blot for Importin-α1
T1 sequence: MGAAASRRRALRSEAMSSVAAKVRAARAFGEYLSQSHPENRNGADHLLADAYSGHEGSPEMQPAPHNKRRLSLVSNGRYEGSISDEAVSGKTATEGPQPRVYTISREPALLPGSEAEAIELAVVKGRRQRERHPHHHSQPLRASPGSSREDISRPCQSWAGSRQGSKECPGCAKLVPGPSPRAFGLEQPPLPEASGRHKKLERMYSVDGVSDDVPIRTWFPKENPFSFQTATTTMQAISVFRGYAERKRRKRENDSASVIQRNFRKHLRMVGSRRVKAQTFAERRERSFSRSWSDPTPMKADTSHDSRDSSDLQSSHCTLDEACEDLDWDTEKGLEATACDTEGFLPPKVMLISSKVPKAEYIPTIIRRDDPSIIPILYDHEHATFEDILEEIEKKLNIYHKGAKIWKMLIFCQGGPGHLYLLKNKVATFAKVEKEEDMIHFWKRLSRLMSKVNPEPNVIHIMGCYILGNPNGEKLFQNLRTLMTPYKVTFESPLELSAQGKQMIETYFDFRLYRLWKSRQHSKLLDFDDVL

Protein sequences, listed by entry. Tags and fused reporters are not part of them.
UniProt O88751: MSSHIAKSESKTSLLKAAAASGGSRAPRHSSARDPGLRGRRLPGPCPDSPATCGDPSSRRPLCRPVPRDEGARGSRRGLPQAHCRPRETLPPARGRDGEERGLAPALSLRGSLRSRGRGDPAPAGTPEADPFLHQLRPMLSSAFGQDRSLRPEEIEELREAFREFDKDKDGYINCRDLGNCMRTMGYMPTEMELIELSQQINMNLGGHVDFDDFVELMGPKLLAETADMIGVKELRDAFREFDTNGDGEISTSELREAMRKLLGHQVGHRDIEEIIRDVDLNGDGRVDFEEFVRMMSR

[2] = molecular target: Caldendrin (entire open reading frame, yeast two-hybrid bait in pAS2-1) (UniProt O88751); test: two-hybrid; yeast; Caldendrin bait in pAS2-1, rat brain cDNA library in pACT2; deletion and point mutation constructs cotransformed; β-galactosidase colony lift assay scored by time to blue colonies (1 h, 3 h, 6 h)
[3] = molecular target: GST-Importin-α1; test: pull-down; GST-Importin-α1 pull-down of myc/his-tagged Jacob extracted from transfected HEK-293 cells; only the target purified

binding [1]: binds
Molecule: Importin-α1 (endogenous, rat brain)

binding [2]: no binding
Molecule: Jacob F241E (yeast two-hybrid construct) (from UniProt Q9EPI6)

binding [3]: no binding
B1: myc/his-tagged ΔNLS-Jacob (protein, UniProt Q9EPI6)
chain: MGAAASRRRALRSEAMSSVAAKVRAARAFGEYLSQSHPENRNGADHLLADAYSGHEGSPEMQPAPHNKRRLSLVSNGRYEGSISDEAVSGKTATEGPQPRVYTISREPALLPGSEAEAIELAVVKGRRQRERHPHHHSQPLRASPGSSREDISRPCQSWAGSRQGSKECPGCAKLVPGPSPRAFGLEQPPLPEASGRHKKLERMYSVDGVSDDVPIRTWFPKENPFSFQTATTTMQAISVFRGYAEENDSASVIQRNFRKHLRMVGSRRVKAQTFAERRERSFSRSWSDPTPMKADTSHDSRDSSDLQSSHCTLDEACEDLDWDTEKGLEATACDTEGFLPPKVMLISSKVPKAEYIPTIIRRDDPSIIPILYDHEHATFEDILEEIEKKLNIYHKGAKIWKMLIFCQGGPGHLYLLKNKVATFAKVEKEEDMIHFWKRLSRLMSKVNPEPNVIHIMGCYILGNPNGEKLFQNLRTLMTPYKVTFESPLELSAQGKQMIETYFDFRLYRLWKSRQHSKLLDFDDVL
